Assay results: US20150024008A1, “Methods and Compositions Involving Induced Senescent Cells for Cancer Treatment” (THE UNIVERSITY OF CHICAGO, priority 2011, published 2015)
At least one structure is not confirmed: it was looked up by name or label, or the drawing left a doubt.

Experiments:
Assay type in all cases: cell-based
[1] = system: MCF7 Tet-On GFP-IBD human breast cancer cell line; assay: GFP-53BP1 IRIF persistence, senescence and growth in MCF7 Tet-On GFP-IBD cells; settings: combined with irradiation
Description: To examine the effect of glucose metabolism on IRIF persistence in living cells, we exploited our previously described IRIF reporter consisting of GFP fused to the 53BP1 IRIF binding domain, expressed under tetracycline-inducible control. MCF7^Tet-On GFP-IBD cells were seeded at 3×10^5 per Fluorodish (World Precision Instruments, Inc.) in high-glucose (4.5 g/L) DMEM (Invitrogen) media supplemented with 10% Tet system-approved fetal bovine serum (Clontech) and 1 μg/mL doxycycline (Sigma). Next day media was exchanged for either high-glucose (4.5 g/L) or low-glucose (1 g/L) DMEM with 10% FBS and 1 μg/mL doxycycline. […] Cells were fixed at 3 h and 24 h for IRIF imaging and at day 5 for SA-βGal staining. Images were captured on Zeiss Axiovert 200M and a Hammatsu Orca ER FireWire digital monochrome (IRIF) or Zeiss Axiocam color digital camera (SA-βGal staining) controlled by OpenLab software.
To investigate what step of glycolysis is critical for improvement of DNA repair we used set of well established glycolysis inhibitors including glucose transporter Glut1 inhibitor, HXKi, GAPHi, PKi, LDHi. […] Given that elevated glycolysis predispose tumor cells for therapeutic resistance similar experiment has been performed on IR resistant PANC02 mouse pancreatic and U87 human glioma cell lines.

[2] = system: U87 human glioma cell line; assay: GFP-53BP1 IRIF persistence in U87 Tet-On GFP-IBD cells; settings: 24 hours after 6 Gy
Description: (§1) PANC02^Tet-On GFP-IBD and U87^Tet-On GFP-IBD cell lines have been developed. Cells were seeded at 3×10^5 per Fluorodish in media supplemented with 1 μg/mL doxycycline following pretreatment for 1 h with glycolysis inhibitors before 6 Gy irradiation at 48 h. Phloretin Glut1i—Glucose transporter 1 inhibitor 100 μM (Sigma), HXi—Hexokinase inhibitorII 50 μM (Calbiochem), PKi—Pyruvate kinase inhibitor oxalate 50 μM (Sigma), LDHi—Lactate dehydrogenase inhibitor, oxamate 1 mM (Sigma).

[3] = system: PANC02 mouse pancreatic cell line; assay: GFP-53BP1 IRIF persistence in PANC02 Tet-On GFP-IBD cells; settings: 24 hours after 6 Gy
Description: as §1

Structure (SMILES)	accelerated senescence [1]	persistence of GFP-53BP1 foci (IRIF) [1]	IRIF persistence [2]	IRIF persistence [3]
O=C(O)CC(=O)C(=O)O [oxaloacetate]	promoted accelerated senescence	induced persistence of GFP-53BP1 foci following irradiation	–	–
NC(=O)C(=O)O [oxamate]	promoted accelerated senescence	induced persistence of GFP-53BP1 foci following irradiation	markedly increased IRIF persistence	markedly increased IRIF persistence
